Compound in the assay: Nc1nc2c(ncn2[C@@H]2O[C@H](COP(=O)(O)OP(=O)(O)OP(=O)(O)O)[C@@H](O)[C@H]2O)c(=O)[nH]1 [guanosine triphosphate]
Briefly: NP40-soluble protein abundance relative to vehicle (solubility fold change) (ratio); higher = more soluble protein in presence of GTP. The protocol: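 Solubility proteome profiling in Jurkat crude lysate. Lysate was treated with Mg-GTP (0.1-10 mM) for 10 min at room temperature and 3 min at 37 °C, then solubilised with 0.8% NP40 and benzonase, followed by ultracentrifugation. Proteins were quantified by TMT10 LC-MS/MS; the value is the NP40-soluble abundance relative to the NP40-processed vehicle, from 3 independent experiments.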

Sequences of proteins named here, by UniProt entry; tags and fusion partners are left off. A change or cut given only in a name is not applied to a line headed by its entry.
UniProt O94880: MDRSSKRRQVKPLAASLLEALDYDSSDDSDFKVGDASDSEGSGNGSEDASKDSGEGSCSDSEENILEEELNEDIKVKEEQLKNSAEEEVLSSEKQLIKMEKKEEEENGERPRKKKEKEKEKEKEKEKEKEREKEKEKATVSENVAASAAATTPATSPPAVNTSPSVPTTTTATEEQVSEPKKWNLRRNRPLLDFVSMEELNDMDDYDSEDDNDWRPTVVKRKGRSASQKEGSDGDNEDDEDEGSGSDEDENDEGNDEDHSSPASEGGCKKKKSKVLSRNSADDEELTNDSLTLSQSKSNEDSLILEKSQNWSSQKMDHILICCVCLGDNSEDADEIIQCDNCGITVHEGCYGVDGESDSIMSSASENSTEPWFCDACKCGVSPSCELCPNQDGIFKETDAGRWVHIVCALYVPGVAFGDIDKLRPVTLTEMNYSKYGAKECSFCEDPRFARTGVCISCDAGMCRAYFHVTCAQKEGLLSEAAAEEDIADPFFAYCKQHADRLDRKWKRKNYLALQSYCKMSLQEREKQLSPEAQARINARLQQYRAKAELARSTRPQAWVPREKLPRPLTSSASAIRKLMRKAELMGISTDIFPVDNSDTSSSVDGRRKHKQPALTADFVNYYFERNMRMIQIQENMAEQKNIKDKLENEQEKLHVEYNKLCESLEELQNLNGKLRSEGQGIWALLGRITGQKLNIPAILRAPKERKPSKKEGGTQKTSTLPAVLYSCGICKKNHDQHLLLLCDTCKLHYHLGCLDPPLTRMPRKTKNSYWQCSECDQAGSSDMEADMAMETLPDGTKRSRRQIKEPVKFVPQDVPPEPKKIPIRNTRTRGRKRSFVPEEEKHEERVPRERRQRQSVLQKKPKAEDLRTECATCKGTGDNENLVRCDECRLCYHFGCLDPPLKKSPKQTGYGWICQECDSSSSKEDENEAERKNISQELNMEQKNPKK
UniProt Q6PIU2: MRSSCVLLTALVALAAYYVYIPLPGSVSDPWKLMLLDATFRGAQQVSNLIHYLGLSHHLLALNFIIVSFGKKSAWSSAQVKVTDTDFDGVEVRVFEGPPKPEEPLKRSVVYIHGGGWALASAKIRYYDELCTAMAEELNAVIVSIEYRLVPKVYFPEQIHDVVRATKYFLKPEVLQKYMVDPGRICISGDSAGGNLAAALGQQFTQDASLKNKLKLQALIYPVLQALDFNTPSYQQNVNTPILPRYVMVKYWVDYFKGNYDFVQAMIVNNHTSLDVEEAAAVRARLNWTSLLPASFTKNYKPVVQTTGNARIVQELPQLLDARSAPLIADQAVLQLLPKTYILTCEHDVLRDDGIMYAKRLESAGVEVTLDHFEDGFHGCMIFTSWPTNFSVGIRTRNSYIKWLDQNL
UniProt P56556, whole entry: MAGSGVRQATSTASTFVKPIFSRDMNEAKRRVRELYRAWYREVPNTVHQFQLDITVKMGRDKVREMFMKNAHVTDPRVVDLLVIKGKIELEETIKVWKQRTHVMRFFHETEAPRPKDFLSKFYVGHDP
UniProt P08575: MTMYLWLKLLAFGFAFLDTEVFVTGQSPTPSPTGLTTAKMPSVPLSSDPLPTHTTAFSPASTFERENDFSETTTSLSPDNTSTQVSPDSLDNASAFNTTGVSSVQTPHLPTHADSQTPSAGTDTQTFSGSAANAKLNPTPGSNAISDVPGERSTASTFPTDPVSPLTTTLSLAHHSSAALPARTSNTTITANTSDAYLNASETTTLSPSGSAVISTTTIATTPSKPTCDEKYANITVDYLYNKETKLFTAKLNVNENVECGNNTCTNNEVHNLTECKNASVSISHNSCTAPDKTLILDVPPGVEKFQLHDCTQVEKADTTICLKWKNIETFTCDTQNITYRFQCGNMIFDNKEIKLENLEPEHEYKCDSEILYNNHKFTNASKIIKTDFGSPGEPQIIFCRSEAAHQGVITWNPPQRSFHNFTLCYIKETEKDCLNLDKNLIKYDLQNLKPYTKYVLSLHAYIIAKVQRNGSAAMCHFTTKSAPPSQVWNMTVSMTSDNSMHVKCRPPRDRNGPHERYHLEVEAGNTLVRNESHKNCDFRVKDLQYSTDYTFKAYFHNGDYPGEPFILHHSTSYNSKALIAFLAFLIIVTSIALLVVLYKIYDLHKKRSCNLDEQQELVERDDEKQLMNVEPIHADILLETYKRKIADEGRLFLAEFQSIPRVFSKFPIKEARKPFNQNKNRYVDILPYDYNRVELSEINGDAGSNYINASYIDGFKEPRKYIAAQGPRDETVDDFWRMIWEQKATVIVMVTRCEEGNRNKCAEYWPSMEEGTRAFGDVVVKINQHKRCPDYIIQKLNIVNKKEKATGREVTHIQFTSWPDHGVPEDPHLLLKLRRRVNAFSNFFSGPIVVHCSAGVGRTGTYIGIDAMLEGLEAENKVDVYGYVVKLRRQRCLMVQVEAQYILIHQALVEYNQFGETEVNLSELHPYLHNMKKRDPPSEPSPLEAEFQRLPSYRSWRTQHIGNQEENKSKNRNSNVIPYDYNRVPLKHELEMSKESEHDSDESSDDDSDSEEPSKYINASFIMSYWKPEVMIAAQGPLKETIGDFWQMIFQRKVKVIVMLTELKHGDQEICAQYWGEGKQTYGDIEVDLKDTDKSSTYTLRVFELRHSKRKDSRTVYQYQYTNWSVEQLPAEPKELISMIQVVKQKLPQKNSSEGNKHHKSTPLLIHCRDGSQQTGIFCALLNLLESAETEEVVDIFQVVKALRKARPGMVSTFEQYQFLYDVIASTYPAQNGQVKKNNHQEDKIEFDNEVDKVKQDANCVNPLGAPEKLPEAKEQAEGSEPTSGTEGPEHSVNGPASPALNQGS
UniProt Q96CB8, whole entry: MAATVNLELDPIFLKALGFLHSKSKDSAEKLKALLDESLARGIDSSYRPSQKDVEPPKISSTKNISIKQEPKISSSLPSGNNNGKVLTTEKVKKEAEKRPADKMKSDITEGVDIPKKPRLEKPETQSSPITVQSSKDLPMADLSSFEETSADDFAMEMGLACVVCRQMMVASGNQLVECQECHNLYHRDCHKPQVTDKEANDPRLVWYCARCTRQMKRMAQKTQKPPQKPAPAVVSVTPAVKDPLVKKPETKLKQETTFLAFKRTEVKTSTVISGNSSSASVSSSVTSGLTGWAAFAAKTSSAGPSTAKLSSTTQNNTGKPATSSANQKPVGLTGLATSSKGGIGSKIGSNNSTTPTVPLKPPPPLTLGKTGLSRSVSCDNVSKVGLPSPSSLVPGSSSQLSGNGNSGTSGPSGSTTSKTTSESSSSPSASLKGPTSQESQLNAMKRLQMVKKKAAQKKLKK

± gives the standard deviation of the averaged measurements. The list shows a part of the results.

Consider “A0A0U1RRH6|O94880 and related entries (UniProt O94880)”, for which the NP40-soluble protein abundance was 1.05 ± 0.095 (concentration: 0.1mM); 1.07 ± 0.14 (concentration: 0.5mM); 1.15 ± 0.12 (concentration: 1mM); 1.16 ± 0.065 (concentration: 2mM); 1.34 ± 0.12 (concentration: 4mM); 1.46 ± 0.096 (concentration: 6mM). The NP40-soluble protein abundance by setting is: (concentration: 8mM) 1.65 ± 0.25; (concentration: 10mM) 1.78 ± 0.25.

Take “A0A0A0MTJ9|A0A0R4J2G3|Q6PIU2 and related entries (UniProt Q6PIU2)”: the NP40-soluble protein abundance stood at 0.928 ± 0.1 (concentration: 0.1mM); 0.975 ± 0.095 (concentration: 0.5mM); 0.919 ± 0.096 (concentration: 1mM); 0.922 ± 0.09 (concentration: 2mM); 0.917 ± 0.13 (concentration: 4mM); 0.882 ± 0.12 (concentration: 6mM). In addition, the NP40-soluble protein abundance is 0.889 ± 0.11 (concentration: 8mM) and 0.921 ± 0.086 (concentration: 10mM).

As to A0A0C4DGS0|P56556 (UniProt P56556), the NP40-soluble protein abundance came out at 0.947 ± 0.069 (concentration: 0.1mM); 0.934 ± 0.051 (concentration: 0.5mM); 1.05 ± 0.1 (concentration: 1mM); 1.08 ± 0.12 (concentration: 2mM); 1.09 ± 0.17 (concentration: 4mM); 1.02 ± 0.093 (concentration: 6mM). The NP40-soluble protein abundance is, setting by setting: (concentration: 8mM) 0.939 ± 0.064; (concentration: 10mM) 1.01 ± 0.1.

On to “A0A0A0MT22|P08575 and related entries (UniProt P08575)”, for which the NP40-soluble protein abundance runs as follows: (concentration: 0.1mM) 0.925 ± 0.056; (concentration: 0.5mM) 0.946 ± 0.045; (concentration: 1mM) 0.927 ± 0.059; (concentration: 2mM) 0.899 ± 0.05; (concentration: 4mM) 0.878 ± 0.055; (concentration: 6mM) 0.904 ± 0.052. Further, the NP40-soluble protein abundance is 0.897 ± 0.058 (concentration: 8mM) and 0.91 ± 0.061 (concentration: 10mM).

In the case of A0A087WXN4|Q96CB8 (UniProt Q96CB8), the NP40-soluble protein abundance is 0.965 ± 0.071 (concentration: 0.1mM); 0.905 ± 0.033 (concentration: 0.5mM); 0.921 ± 0.036 (concentration: 1mM); 0.956 ± 0.068 (concentration: 2mM); 1 ± 0.093 (concentration: 4mM); 1.03 ± 0.058 (concentration: 6mM). The NP40-soluble protein abundance reads like this: (concentration: 8mM) 1.12 ± 0.11; (concentration: 10mM) 1.13 ± 0.13.

The values are drawn from the supplement of paper PMC6411743.
